This is an account of results in paper PMC6914800.

For this assay, the target named is T1, Paraspeckle component 1 (PSPC1), endogenous (human (endogenous in Huh-7)) (UniProt Q8WXF1).
T1 sequence: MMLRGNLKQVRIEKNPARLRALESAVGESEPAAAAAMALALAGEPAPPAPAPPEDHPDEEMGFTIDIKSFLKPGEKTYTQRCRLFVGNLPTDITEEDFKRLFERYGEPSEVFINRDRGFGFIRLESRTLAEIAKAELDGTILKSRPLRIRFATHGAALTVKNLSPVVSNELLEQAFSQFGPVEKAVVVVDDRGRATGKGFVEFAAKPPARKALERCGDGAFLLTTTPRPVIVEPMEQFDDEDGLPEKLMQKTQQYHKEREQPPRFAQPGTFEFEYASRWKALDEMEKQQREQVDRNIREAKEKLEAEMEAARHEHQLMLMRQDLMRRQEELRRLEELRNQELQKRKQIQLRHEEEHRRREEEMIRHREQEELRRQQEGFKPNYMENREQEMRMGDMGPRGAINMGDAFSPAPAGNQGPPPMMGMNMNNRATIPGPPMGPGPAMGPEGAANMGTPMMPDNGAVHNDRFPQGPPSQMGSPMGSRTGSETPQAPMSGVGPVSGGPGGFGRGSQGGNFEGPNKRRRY
Description: affinity purification with mass spectrometry; PSPC1 IP with Huh-7 cell lysate; co-precipitated proteins separated by SDS-PAGE, Coomassie-stained bands digested with trypsin, LC-MS/MS.

No constants are given. Whether binding was seen depends on the method and setting. In cells and extracts the contact can be indirect. A yes stands for co-enrichment or nearness to the bait. Other partners may have been found.

For the substance “Protein tyrosine kinase 6 (PTK6), endogenous (from UniProt Q13882 1-451) (enzyme)”, the binding result is on record as “binds”.
